Assay results: publication PMC8447793
These are yes or no findings as the source states them, for the method shown. Binding seen in cells or lysates may run through a third protein. Binding calls can cover weak binding; strength is not graded here. Tags and fused reporters may be left off the sequences shown.

Target: Raf-1 Ras-binding domain agarose beads (Ras Assay Reagent), P04049
Experiment: pull-down; Raf-1 RBD agarose beads (20 µl) mixed with 250 µg clarified lysate of transfected ST88-14 cells in magnesium-containing lysis buffer (25 mM HEPES pH 7.5, 150 mM NaCl, 10 mM MgCl2, 1 mM EDTA, 1% Igepal CA-630, 10% glycerol); bound proteins detected by blot for Myc or HA tag; for Myc-H-Ras, cells with or without doxycycline-induced DN R-Ras or DN H-Ras; only the target purified
Conditions: remark: other sources report otherwise

binding: binds
B1: Myc-tagged wild-type R-Ras2, P62070 1-204 (protein)
chain: MAAAGWRDGSGQEKYRLVVVGGGGVGKSALTIQFIQSYFVTDYDPTIEDSYTKQCVIDDRAARLDILDTAGQEEFGAMREQYMRTGEGFLLVFSVTDRGSFEEIYKFQRQILRVKDRDEFPMILIGNKADLDHQRQVTQEEGQQLARQLKVTYMEASAKIRMNVDQAFHELVRVIRKFQEQECPPSPEPTRKEKDKKGCHCVIF
